Assay results taken from PubChem BioAssay AID504834 (National Center for Advancing Translational Sciences (NCATS), 2011).
In all, about 320,000 compounds went through this assay and about 22,000 (6.9%) were called active. This list was built around the results that the source calls inconclusive (neither active nor inactive); the mix of calls is not that of the screen. The call rests on the fitted dose curve; in most records, active means well fitted inhibition curve with a large enough effect; inconclusive means small, poorly fitted or top-dose-only effect, or another doubt; inactive means no such curve, though single readings can be large or run the other way. Potencies of inconclusive entries are doubtful fits and often do not repeat.

test: Primary qHTS for delayed death inhibitors of the malarial parasite plastid, 96 hour incubation; settings: P. falciparum luciferase reporter growth; series mostly up to 28.7 µM; activity change, negative = inhibition: at the top concentration
How it was run: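 P. falciparum expressing integrated firefly luciferase, in erythrocytes at 2% hematocrit, 0.05% parasitemia, incubated with compounds 96 h at 37 C, 5% CO2. Growth inhibition read as loss of luminescence; two-generation exposure targets delayed-death apicoplast inhibitors.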
On the % scale 0 is the no-effect control and ±100 the full control effect; potency means the concentration at half of the fitted maximal effect.

SMILES | Potency | activity change, negative = inhibition
COc1cc(S(=O)(=O)N2CCCCCC2)ccc1-n1cnnn1 | inconclusive: 2.33 µM [inhibitor, full curve] | 
CN(C)c1ccc(/C=C2/SC(=O)N(CCN=C3NS(=O)(=O)c4ccccc43)C2=O)cc1 |  | inactive: -2.69%
CCC(C)N(C(=O)COC(=O)C1CCN(S(=O)(=O)c2ccc(C)c(C)c2)CC1)C1CCS(=O)(=O)C1 (stereo not given) | inconclusive: 11.7 µM [inhibitor, partial curve, poor fit] | 
Clc1ccc(Cn2ncc3c(NCc4cccnc4)ncnc32)cc1 |  | inactive: 24.1%
Cc1ccccc1OCCC(=O)N1CCN(S(=O)(=O)c2ccccc2F)CC1 | inconclusive: 7.38 µM [inhibitor, partial curve, poor fit] | 
Nc1ccc2nc(-c3ccc(-c4nc5ccc(N)cc5[nH]4)cc3)[nH]c2c1 | active: 2.33 µM | 
Cc1ccc(-n2c(C)c([N+](=O)[O-])c3ccc(O)cc32)cc1 | inconclusive: 11.7 µM [inhibitor, single point] | 
CNC(=S)NNC(=O)c1noc(C)c1C(=O)N1CCN(C(c2ccccc2)c2ccccc2)CC1 |  | inactive: -105%
COc1ccc(N(CC(=O)N2CCN(Cc3ccc4c(c3)OCO4)CC2)S(=O)(=O)c2ccc(F)cc2)cc1 | inconclusive: 11.7 µM [inhibitor, single point] | 
Cc1cccc(C(=O)N[C@H](C(=O)Nc2cccc(S(=O)(=O)N3CCCC3)c2)C(C)C)c1 | inconclusive: 11.7 µM [inhibitor, single point] | 
Cc1cc(C)nc(/N=C(\N)Nc2ccc(C(C)C)cc2)n1 | active: 11.7 µM | 
COC(=O)c1c(NC(=O)CN2CCC3(O)CCCCC3C2c2ccccc2OC)sc(C)c1C (stereo not given) | inconclusive: 6.57 µM [inhibitor, partial curve, poor fit] | 
CC(C)COc1ccc(-c2nn(-c3ccccc3)cc2C(=O)Nc2nccs2)cc1 | inconclusive: 0.0657 µM [inhibitor, full curve, poor fit] | 
C=CCn1c(/N=C/c2ccc3c(c2)OCO3)nc2ccccc21 | inconclusive: 18.5 µM [inhibitor, single point] | 
Cc1ccc(CN2CC(C(=O)Nc3ccc(S(=O)(=O)Nc4cc(C)nc(C)n4)cc3)CC2=O)cc1 (stereo not given) | inconclusive: 0.37 µM [inhibitor, full curve, poor fit] | 
COc1cc(NC(=O)Cn2c(=O)n(CC3CCCO3)c(=O)c3ccccc32)cc(OC)c1 (stereo not given) | inconclusive: 8.28 µM [inhibitor, partial curve] | 
Fc1ccc(-c2n[nH]c(=S)n2/N=C/c2c[nH]c3ccccc23)cc1 | inconclusive: 10.4 µM [inhibitor, single point] | 
Cc1cc(S(=O)(=O)N2CCN(c3ccccn3)CC2)c(C)cc1Cl | inconclusive: 18.5 µM [inhibitor, single point] | 
CCOC(=O)NN1C(=O)c2ccccc2NC1c1ccc(N(C)C)cc1 (stereo not given) | inconclusive: 18.5 µM [inhibitor, single point] | 
CC(=O)c1ccc(N=Nc2c(C)[nH]n(-c3ccccc3)c2=O)cc1 |  | inactive: 6.59%
Cc1nc(Sc2ccc(Cl)cc2)c(C#N)c(C)c1[N+](=O)[O-] | active: 11.7 µM | 
N#Cc1ccc2c(c1)C[C@]1(CCCCN3C(=O)c4ccccc4C3=O)Oc3c(c(=O)oc4ccc(F)cc34)C2O1 | inconclusive: 4.26 µM [inhibitor, single point] | 
Cc1ccc(NC(=O)C23CCC(C)(C(=O)[C@H]2Br)C3(C)C)cc1 (stereo not given in full) |  | inactive: -1.71%

Ordered by molar mass (smallest number first): part of the list above
SMILES | Potency | activity change, negative = inhibition
C=CCn1c(/N=C/c2ccc3c(c2)OCO3)nc2ccccc21 | inconclusive: 18.5 µM [inhibitor, single point] | 
Cc1nc(Sc2ccc(Cl)cc2)c(C#N)c(C)c1[N+](=O)[O-] | active: 11.7 µM | 
Fc1ccc(-c2n[nH]c(=S)n2/N=C/c2c[nH]c3ccccc23)cc1 | inconclusive: 10.4 µM [inhibitor, single point] | 
Cc1ccccc1OCCC(=O)N1CCN(S(=O)(=O)c2ccccc2F)CC1 | inconclusive: 7.38 µM [inhibitor, partial curve, poor fit] | 

(cont.)

SMILES | Potency | activity change, negative = inhibition
O=C1CC(N2CCCc3ccccc32)C(=O)N1c1ccccc1Cl (stereo not given) | inconclusive: 18.5 µM [inhibitor, single point] | 
Cc1cc(C)n(C(=O)Cn2nc(C)c(Cl)c2C)n1 | inconclusive: 13.1 µM [inhibitor, single point] | 
O=C(Nc1nnc(C2CC2)o1)c1ccc(S(=O)(=O)N2CCCCC2)cc1 | active: 16.5 µM | 
Cc1cc(Br)cc2c(C(=O)NCC3CCCO3)cc(-c3ccccc3)nc12 (stereo not given) |  | inactive: 30.9%
C(#CC1CCCC1)c1ccc2c(c1)COc1c3ccccc3nn1-2 |  | inactive: 72.3%
N#Cc1c(N2CCN(C(=O)c3ccccc3Cl)CC2)nc(-c2ccccc2)c2c1CCCC2 | inconclusive: 5.22 µM [inhibitor, partial curve] | 
Cc1[nH][nH]c(=O)c1C(c1c(C)[nH][nH]c1=O)c1cn(C)c2ccccc12 |  | inactive: 15.1%
COc1ccc(NC(=O)CN(C)S(=O)(=O)c2ccc(Br)s2)cc1OC |  | inactive: 7.75%
COc1ccc(NCN2C(=O)C3C4C=CC(C4)C3C2=O)cc1 (stereo not given) | active: 10.4 µM | 
C=CCn1c(SCC(=O)Nc2ccccc2OC)nc(O)c(CC)c1=O | inconclusive: 9.28 µM [inhibitor, single point] | 
COc1ccc(S(=O)(=O)N2CCCCCC2)cc1NC(=O)c1ccccc1F | inconclusive: 9.28 µM [inhibitor, partial curve, poor fit] | 
Cc1cc(C)nc(SC/C=C/c2ccccc2)n1 |  | inactive: 41.6%
O=C(c1cc(-c2ccncc2)nc2ccccc12)N1CCN(c2ccccn2)CC1 |  | inactive: 0.849%
COc1cccc(CN(C(=O)Cc2c[nH]c3ccccc23)C(C(=O)NC2CCCCC2)c2cccs2)c1 (stereo not given) | active: 11.7 µM | 
CCOc1ccccc1Nc1nc(-c2sc(NC(=O)c3cccc(Cl)c3)nc2C)cs1 | active: 4.65 µM | 
Cc1cccc(C)c1NC(=S)N(Cc1cccs1)C1CCCC1 | inconclusive: 18.5 µM [inhibitor, single point] | 
COc1ccc(NC(=O)Nc2cccc([N+](=O)[O-])c2)cc1Cl |  | inactive: 26.5%
O=C1C2C3C=CC(C3)C2C(=O)N1CCc1ccccc1 (stereo not given) | inconclusive: 18.5 µM [inhibitor, single point] | 
COc1ccc(NC(=S)N2CCN(C(=O)C3CCCO3)CC2)c(OC)c1 (stereo not given) |  | inactive: -4.47%
N#Cc1nc(-c2ccccc2)oc1NCCCn1ccnc1 | inconclusive: 10.4 µM [inhibitor, partial curve, poor fit] | 
Cn1c(-c2ccccc2)cccc1=O |  | inactive: -77.4%
O=C(CN1C(=O)NC2(CCCC2)C1=O)N1CCN(S(=O)(=O)c2ccccc2)CC1 |  | inactive: -5.56%
